The other results are listed elsewhere or left out.
target: T1, OsSMF1 (Oryza sativa, UniProt Q6ZLB0 1-436); test: protein-binding microarray (RPBM); PBS, 2% BSA, 51.3 ng/ul salmon testes DNA, 50 uM zinc acetate, 200 nM TF, 25 C, 1 h; high values mean tight binding; conditions: protein: recombinant; tags: N-terminal polyhistidine and DsRed monomer fusion (pET32a); chain copies: 2; label: CyDye5-dUTP incorporated in the synthesized complementary strand; 3' TTTTT single-stranded linker to array surface; dsDNA, one strand shown
T1 sequence: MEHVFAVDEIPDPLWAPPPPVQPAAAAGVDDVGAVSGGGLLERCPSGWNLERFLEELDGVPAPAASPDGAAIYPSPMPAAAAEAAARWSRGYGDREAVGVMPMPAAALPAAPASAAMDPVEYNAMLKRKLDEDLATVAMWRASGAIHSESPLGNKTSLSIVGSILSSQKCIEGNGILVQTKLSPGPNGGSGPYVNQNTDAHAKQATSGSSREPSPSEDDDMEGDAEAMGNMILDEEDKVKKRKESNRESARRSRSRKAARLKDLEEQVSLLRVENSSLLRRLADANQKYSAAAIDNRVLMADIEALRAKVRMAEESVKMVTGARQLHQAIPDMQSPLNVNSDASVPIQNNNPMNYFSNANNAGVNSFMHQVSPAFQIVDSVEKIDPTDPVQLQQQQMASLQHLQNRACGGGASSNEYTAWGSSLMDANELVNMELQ
Outline: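 The binding signal is fluorescence intensity per feature, in arbitrary units, read on an Axon 4000B scanner. Polyhistidine- and DsRed-tagged transcription factors (N-terminal fusions) from E. coli BL21-CodonPlus were purified on Ni–NTA and applied at 200 nM for 1 h at 25 °C to a double-stranded, BSA-blocked custom Agilent array in buffer with 50 µM zinc acetate.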

| Sequence | binding signal |
| --- | --- |
| TGTCGGCGCACGGAAACGTGTCGTGGGGCTGTGTCTTGTGCGGAGTCACCTAGTGCAG | 3280 fluorescence intensity (a.u.) |
| TCAGTGTGTCACGTGACTCACCACCTCCTCCACACCAAACCGGAGTCACCTAGTGCAG | 17300 fluorescence intensity (a.u.) |
| TTTTGAACCTAAACGTGTCTGTTTCCACCAGTGCTGCGTACGGAGTCACCTAGTGCAG | 3310 fluorescence intensity (a.u.) |
| GCCGCCTCGTCTGCAACCGCCTCCGCCTCCACGACCGACTCGGAGTCACCTAGTGCAG | 3450 fluorescence intensity (a.u.) |
| CATGGCGCGGAGGGAGGTGGAGTTGATCGCGCCGCACGCCCGGAGTCACCTAGTGCAG | 3450 fluorescence intensity (a.u.) |
| CCCGAGTAGCCGGTTGCATCAACGGTGGCGATATCAAGCGCGGAGTCACCTAGTGCAG | 4160 fluorescence intensity (a.u.) |
| TTTTATACACGAAAGCGCCACGTCAGCTCTACATGGAACGCGGAGTCACCTAGTGCAG | 31800 fluorescence intensity (a.u.) |
| GCGAAGAACGCTTGCACTTGTGTGCAGCGACGCGCGAATTCGGAGTCACCTAGTGCAG | 4440 fluorescence intensity (a.u.) |
| TTGTGCCATGTATGTATGCATGGGTGTCACACCGCACCACCGGAGTCACCTAGTGCAG | 4210 fluorescence intensity (a.u.) |
| CTCGCGGTTGATCTCTCCCGGCCTTGTACGCCACCCGCGTCGGAGTCACCTAGTGCAG | 11800 fluorescence intensity (a.u.) |
| GGAAACAGCAATGCAGCTGCCTGTAGAGACAATAGTTTTCCGGAGTCACCTAGTGCAG | 3760 fluorescence intensity (a.u.) |
| TACAATACGTTCTTCCCAATAAGTATGGGCCACACGTCACCGGAGTCACCTAGTGCAG | 9320 fluorescence intensity (a.u.) |
| AGAAAAGCTCGGTGCCGCCATTAATGGGCTCTCCGTACAACGGAGTCACCTAGTGCAG | 34500 fluorescence intensity (a.u.) |
| TAAGTTGAGGATGCCACGTATCTGGTTTTGTAATTAGGGGCGGAGTCACCTAGTGCAG | 8550 fluorescence intensity (a.u.) |
| TGTTTGTGTACGGGTGATACGTTGTATGAGTTGTCTCTTACGGAGTCACCTAGTGCAG | 4540 fluorescence intensity (a.u.) |
| AATTGACTCGACATATATCGAGCTGTCACGGTAAAGGCCGCGGAGTCACCTAGTGCAG | 3550 fluorescence intensity (a.u.) |
| AGTACGACCAGCTTAGCGTCGCGTACTCGCGTCAGCGCAGCGGAGTCACCTAGTGCAG | 3420 fluorescence intensity (a.u.) |
| GACGCCTGCCTGTCGCGCTGATGCTATCACCATGGGTACCCGGAGTCACCTAGTGCAG | 3420 fluorescence intensity (a.u.) |
| CCTCCTCGGGTGCTGACGTGGCACCCCGGCCGACGCGGCCCGGAGTCACCTAGTGCAG | 25300 fluorescence intensity (a.u.) |
| AGTTGTTTTGTTGATAGGTATAGGTATGAATCGAATTATTCGGAGTCACCTAGTGCAG | 34400 fluorescence intensity (a.u.) |
| TTGGTTTGCAGTGGATGAGGAGGAAATTTTGAGCGACTTGCGGAGTCACCTAGTGCAG | 3770 fluorescence intensity (a.u.) |

Single values from the entries so far.
Under binding signal, TTTTATACACGAAAGCGCCACGTCAGCTCTACATGGAACGCGGAGTCACCTAGTGCAG has 31800 fluorescence intensity (a.u.)
Under binding signal, TCAGTGTGTCACGTGACTCACCACCTCCTCCACACCAAACCGGAGTCACCTAGTGCAG has 17300 fluorescence intensity (a.u.)
Under binding signal, TTGGTTTGCAGTGGATGAGGAGGAAATTTTGAGCGACTTGCGGAGTCACCTAGTGCAG has 3770 fluorescence intensity (a.u.)

Next records.

| Sequence | binding signal |
| --- | --- |
| GCATCTAGAATAAATTATTATGTTTTACTAAATACAAATACGGAGTCACCTAGTGCAG | 30600 fluorescence intensity (a.u.) |
| TTCTTGCCTTTATCTTGCAGCCATTGCACACACCTCACTTCGGAGTCACCTAGTGCAG | 4410 fluorescence intensity (a.u.) |
| TGGGCCAAACCACCGCCACGTTGCCATCGCTGATTCGCCGCGGAGTCACCTAGTGCAG | 10700 fluorescence intensity (a.u.) |
| TCGGCCCCTATTGCGTCACTGGGCGTCGCCTCCCCTTTCTCGGAGTCACCTAGTGCAG | 7960 fluorescence intensity (a.u.) |
| TGTCCGCGAGGTGCGCCGACCCGCTGCTCCGCAGGTTGGACGGAGTCACCTAGTGCAG | 8490 fluorescence intensity (a.u.) |
| GCCACGGGCGAGCCGACGAGCAGCGTGCGTCACCACCGTACGGAGTCACCTAGTGCAG | 6640 fluorescence intensity (a.u.) |
| ACCCCACACCTTTTCTCCTACCCACCACCCGTCTCCGCAACGGAGTCACCTAGTGCAG | 3140 fluorescence intensity (a.u.) |
| TCACAAAGTTGTCCTTTCCACACGTCCTCCTATATGCACTCGGAGTCACCTAGTGCAG | 4600 fluorescence intensity (a.u.) |
| TCCTGCAGCGGGGCGCGTGGCTCGTCTAGAAATCGGATGACGGAGTCACCTAGTGCAG | 5950 fluorescence intensity (a.u.) |
| AACAATCTACGTCTCGTCTCGTCACGGCCCAATCCACGATCGGAGTCACCTAGTGCAG | 4370 fluorescence intensity (a.u.) |
| GCAGCATATGACATTCTGTCTGATGAAGAGAAGAGGAAAACGGAGTCACCTAGTGCAG | 22600 fluorescence intensity (a.u.) |
| GGTGCGGGAATGGGAAGAAGTCGGCGGACTAGAGGGGCGGCGGAGTCACCTAGTGCAG | 3140 fluorescence intensity (a.u.) |
| TATCATCGCCACCACTAGCTTGTCGTCGTGGCATTGGATTCGGAGTCACCTAGTGCAG | 4970 fluorescence intensity (a.u.) |
| TTTTACGTAAAATGAGATGGTATTACGTATGATTAATTGACGGAGTCACCTAGTGCAG | 3520 fluorescence intensity (a.u.) |
| CTTGGCTGTTCCAGCAAGTCATCAATAATCATATCGTCGTCGGAGTCACCTAGTGCAG | 3520 fluorescence intensity (a.u.) |
| AAAGTGAACAGGCCCCTAGCGTAGATGTCGGGTGGGATGGCGGAGTCACCTAGTGCAG | 3310 fluorescence intensity (a.u.) |
| ATAGAAACATAGCGTGACACAACATAACAAACCAATGCAACGGAGTCACCTAGTGCAG | 4630 fluorescence intensity (a.u.) |
| TCGTAGGGTGCGGGGTGGCTGCCTGTCTCCTTCGCCTCGCCGGAGTCACCTAGTGCAG | 3310 fluorescence intensity (a.u.) |
| GGCGCGCTGGCATCCGCCACGGGCCTCGACCGCCTCGTCGCGGAGTCACCTAGTGCAG | 4530 fluorescence intensity (a.u.) |
| AGGACAACACCTACGTCTACATGTGCGGCCTCAAGGGCATCGGAGTCACCTAGTGCAG | 3470 fluorescence intensity (a.u.) |
| GGCAGTTTTGCCAGTTGTTGATTGGACCACGTGGCTTGACCGGAGTCACCTAGTGCAG | 7670 fluorescence intensity (a.u.) |

From paper PMC7819943, “Rice protein-binding microarrays: a tool to detect cis-acting elements near promoter regions in rice”
